Assay results: patent US20240287627A1, “TEMPORALLY MULTIPLEXED IMAGING” (MASSACHUSETTS INSTITUTE OF TECHNOLOGY, priority 2023, published 2024)
At least one compound was matched to its structure with a doubt left.

What was measured:
Assay type in all cases: cell-based
[1] = test system: PKA; assay: Kinase translocation reporter imaging, PKA KTR-Clover, in NIH/3T3 cells
From the text: (§1) The constructs of JNKKTRrsGreenFast-E (JNKKTR is SEQ ID NO: 5), P38KTRDronpa, ERKKTRrsFastLime (ERKKTR is SEQ ID NO: 6) were built based on the original KTRs constructs JNKKTRClover (addgene plasmid 59151; JNKKTR is SEQ ID NO: 5), P38KTRmCerulean3 (addgene plasmid 59155), ERKKTRClover(addgene plasmid 59150; ERKKTR is SEQ ID NO: 6), all gift of Markus W. Covert (Regot S, et al., Cell, (2014); 157(7):1724-34). The newly developed three KTRs were then used along with PKAKTRClover (addgene plasmid […]; PKAKTR is SEQ ID NO: 7) and H2B-TagBFP to report the activities of all four kinases. H2B-TagBFP was used as a nucleus marker. NIH/3T3 cells were imaged on the same microscope and incubator system as the imaging of cell cycle phases. Cell culture media were changed to imaging media (MEM (Gibo) without phenol red with 1% FBS (Gibo)) prior to imaging. The imaging conditions (including exposure time, excitation, and emission) for KTRs were the same as those for imaging cell cycle phases as described previously. […]
(§2) Quantification of KTRs: Kinase activities reported by KTRs including CDK2 reporter and CDK4/6 reporter were quantified following the methods described previously (Regot S, et al., Cell, (2014); 157(7):1724-34). […]

[2] = test system: ERK; assay: Kinase translocation reporter imaging, rsFastLime-based ERK sensor, in NIH/3T3 cells
From the text: as §1, §2

[3] = test system: P38; assay: Kinase translocation reporter imaging, Dronpa-based P38 sensor, in NIH/3T3 cells
From the text: as §1, §2

[4] = test system: cAMP; assay: cAMP imaging with Pink Flamindo in NIH/3T3 cells (seven-signal imaging); conditions: 50 μM forskolin added at t=8 min
From the text: (§3) Simultaneous imaging of seven cell activities within single cells: The genes of the single-color KTRs were cloned into the following plasmid: CAG-JNKKTRrsGreenF-E-P2A-ERK KTRrsFastLime-IRES-PKAKTRClover-P2A-P38KTRDropna (JNKKTR is SEQ ID NO: 5 and PKAKTR is SEQ ID NO: 7). The aforementioned plasmid was then used with plasmid CAG-NIR-GECO2G (Qian Y, et al., PLoS Biol., (2020); 18(11):e3000965), plasmid CMV-Pink Flamindo (Harada K, et al., Sci Rep., (2017); 7(1):7351), and plasmid CMV-BlueCKAR (Mehta S, et al., Nat Cell Biol, (2018); 20(10):1215-25) for imaging 7 signals within individual NIH/3T3 cells. Imaging conditions for blue channel, green channel, and red channel were the same as those used in the imaging of cell cycle phases and CDKs activities. An extra channel (excitation: 637/12 nm at 9 mW/mm^2; emission: 664LP, exposure time: 100 ms) was used for imaging NIR-GECO2G. Images and movies were acquired every 2 min. 50 μM forskolin (Millipore Sigma) and 100 ng/ml Phorbol 12-myristate 13-acetate (PMA) (Millipore Sigma) were used to stimulate cells.

[5] = test system: JNK; assay: Kinase translocation reporter imaging, rsGreenF-E-based JNK sensor, in NIH/3T3 cells
From the text: as §1, §2

[6] = test system: Ca^2+; assay: Ca2+ imaging with NIR-GECO2G in NIH/3T3 cells (seven-signal imaging); conditions: 50 μM forskolin added at t=8 min
From the text: as §3

[7] = test system: PKC; assay: PKC imaging with BlueCKAR in NIH/3T3 cells (seven-signal imaging); conditions: 50 μM forskolin added at t=8 min
From the text: as §3

[8] = four-KTR imaging, 50 μM forskolin at t=0 min, compared to bFGF2 case
[9] = seven-signal imaging, 50 μM forskolin added at t=8 min

SMILES: C=C[C@@]1(C)CC(=O)[C@]2(O)[C@@]3(C)[C@@H](O)CCC(C)(C)[C@@H]3[C@H](O)[C@H](OC(C)=O)[C@@]2(C)O1 [forskolin]
- PKA activity after stimulation [1, 8]: preferentially induced
- PKA response [1, 9]: obvious increases
- ERK activity after stimulation [2, 8]: lesser activity
- ERK response [2, 9]: little elevations
- P38 activity after stimulation [3, 8]: lesser activity
- P38 response [3, 9]: little elevations
- cAMP response [4]: obvious increases
- JNK activity after stimulation [5, 8]: lesser activity
- JNK response [5, 9]: little elevations
- Ca^2+ response [6]: obvious increases
- PKC response [7]: no substantial response
